Record: PubChem BioAssay AID652272 (Drosophila RNAi Screening Center, 2013)

Test: 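Genome-wide knock-down search for components of Hedgehog signalling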 (primary screen)
Cells: Drosophila clone 8 (Cl8) cells
Reagents: long dsRNA against Drosophila genes
Detection: 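Firefly light from a Hedgehog-responsive ptc promoter reporter and Renilla reference light, both read on a plate reader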
Direction: firefly Hh reporter signal: higher = more ptc reporter light; Renilla reference signal: higher = more Renilla control light
Call rule: 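Hit when the z-score averaged over two replicates is under -2 or over +3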
Calls: active = hit: reporter lowered or raised; inactive = not a hit
The deposit covers about 21,000 reagents; below is a random part of those that have a named target and a result. Of all reagents, 503 (2.4%) were called active. 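Raw plate light values, not normalised; calls rest on replicate z-scores that were not deposited; hits include reporter decreases as well as increases.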 The numbers tell different reagents against one gene apart. A plus sign joins genes that one reagent is predicted to hit. Not given: the amount of reagent, the time to read-out.

no.	gene	reagent no.	firefly Hh reporter signal, replicate 1	firefly Hh reporter signal, replicate 2	firefly Hh reporter signal, replicate 3	Renilla reference signal, replicate 1	Renilla reference signal, replicate 2	Outcome
1	CG31368	1	49413	73540		1953	1980	inactive
2	CG31368	2	98134	71664		3820	2899	inactive
3	mRpS30	1	91203	55145		2176	1378	inactive
4	AANATL4	1	97584	60793		2764	4365	inactive
5	CG13917	1	1.46e5	1.15e5		5968	4525	inactive
6	Su(H)	1	71473	61387		2282	5527	inactive
7	Nrd1	1	1.14e5	70929		2795	1750	inactive
8	LBR	1	1.27e5	1.20e5		4964	4246	inactive
9	CG3092	1	92336	49366		4115	2237	inactive
10	Prx3	1	1.61e5	1.37e5		5979	4162	inactive
11	CG3008	1	92034	50379		2365	4800	inactive
12	CG9616	1	42272	85897		710	1965	inactive
13	CG42789	1	7.52e5	1.25e5		5124	5124	inactive
14	Not11	1	69836	78006		1289	6208	inactive
15	CG14205	1	1.08e5	2.98e5		4263	11987	inactive
16	CG9147	1	95010	55232		2653	5185	inactive
17	Cyp6a20	1	1.21e5	51318		4699	1472	inactive
18	CG12517	1	62744	63490		1937	4613	inactive
19	CG12078	1	85317	66112		2961	4265	inactive
20	lncRNA:CR32368	1	99138	1.89e5		2773	8897	inactive
21	CG42568 + DnaJ-60	1	80027	37132		2161	4432	inactive
22	CG42568 + DnaJ-60	2	1.30e5	78781		5063	3432	inactive
23	comm2	1	53297			2966	2061	inactive
24	comm2	2	1.92e5			6950	5437	inactive
25	CG8814	1	98425	80018		4160	3899	inactive
26	CG30334	1	1.33e5	2.18e5		3401	9979	inactive
27	Irc	1	91670	73788		3920	3072	inactive
28	Arglu1	1	84971	49164		2339	4953	inactive
29	CG32191	1	97929			4054	2726	inactive
30	Acox57D-d	1	1.32e5	66896		4874	2521	inactive
31	Pex1	1	1.03e5	47267		3856	2144	inactive
32	Ctps	1	3.49e5			7898		inactive
33	Ctps	2	79040	44998		2976	1792	inactive
34	Ctps	3	84135			4147	2400	inactive
35	CG3587	1	1.48e5	6.42e5	89221	3524	33949	inactive

Ordered by “Renilla reference signal, replicate 1” (ascending): some entries from above
gene	reagent no.	firefly Hh reporter signal, replicate 1	firefly Hh reporter signal, replicate 2	firefly Hh reporter signal, replicate 3	Renilla reference signal, replicate 1	Renilla reference signal, replicate 2	Outcome
comm2	1	53297			2966	2061	inactive
CG42568 + DnaJ-60	2	1.30e5	78781		5063	3432	inactive

Additional entries follow.
no.	gene	reagent no.	firefly Hh reporter signal, replicate 1	firefly Hh reporter signal, replicate 2	firefly Hh reporter signal, replicate 3	Renilla reference signal, replicate 1	Renilla reference signal, replicate 2	Outcome
36	Hr3	1	36036	12583		1223	1766	active
37	Hr3	2	73476	43584		3314	1984	inactive
38	CG5104	1	1.13e5	89751		4185	3046	inactive
39	CG4594	1	80555	47021		2756	2301	inactive
40	CG34025	1	96712	1.99e5		2621	8561	inactive
41	pdgy	1	4.57e5	2.17e5		27176	4802	inactive
42	pdgy	2	1.26e5	1.09e5		3005	2856	inactive
43	CG42680	1	1.65e5	3.00e5		4793	14666	inactive
44	CG17698	1	85340	96633		2816	2792	inactive
45	CG32277	1	73992	56330		2406	3637	inactive
46	CG4116	1	1.00e5	2.11e5		4117	8280	inactive
47	Pex5	1	58241	1.54e5		2727	7808	inactive
48	ouib	1	70945	88234		2201	7813	inactive
49	ap	1	94129	68329		3259	2241	inactive
50	MED11	1	29042			2424	700	inactive
51	CG17378	1	1.22e5	76018		3302	8186	inactive
52	CG7101	1	2.00e5	1.57e5		4796	3955	inactive
53	LRR	1	84633	46714		1906	3024	inactive
54	CG42562	1	1.35e5	59786		3768	4369	inactive
55	ItgaPS4	1	52540	53553		1442	4099	inactive
56	sturkopf	1	85650	62482		4193	2539	inactive
57	yl	1	62244	1.74e5		1696	7370	inactive
